# In the supplement of paper PMC6411743:
# Chains of the proteins cited; added tags and fusions are not shown. Lines headed by an entry give the natural chain unless they say otherwise; changes in a name come on top.
# UniProt Q96IZ6: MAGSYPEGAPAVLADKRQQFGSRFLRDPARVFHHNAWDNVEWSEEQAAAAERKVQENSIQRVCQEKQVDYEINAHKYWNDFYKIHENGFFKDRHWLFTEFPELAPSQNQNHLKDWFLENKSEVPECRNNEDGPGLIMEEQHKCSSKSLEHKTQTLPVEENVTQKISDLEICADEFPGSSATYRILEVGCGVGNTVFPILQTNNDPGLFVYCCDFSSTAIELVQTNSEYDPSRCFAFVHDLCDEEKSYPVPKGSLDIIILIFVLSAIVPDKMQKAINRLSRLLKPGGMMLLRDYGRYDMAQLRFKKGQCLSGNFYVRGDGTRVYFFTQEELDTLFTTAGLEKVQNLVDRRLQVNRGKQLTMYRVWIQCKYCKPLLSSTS
# UniProt Q92997: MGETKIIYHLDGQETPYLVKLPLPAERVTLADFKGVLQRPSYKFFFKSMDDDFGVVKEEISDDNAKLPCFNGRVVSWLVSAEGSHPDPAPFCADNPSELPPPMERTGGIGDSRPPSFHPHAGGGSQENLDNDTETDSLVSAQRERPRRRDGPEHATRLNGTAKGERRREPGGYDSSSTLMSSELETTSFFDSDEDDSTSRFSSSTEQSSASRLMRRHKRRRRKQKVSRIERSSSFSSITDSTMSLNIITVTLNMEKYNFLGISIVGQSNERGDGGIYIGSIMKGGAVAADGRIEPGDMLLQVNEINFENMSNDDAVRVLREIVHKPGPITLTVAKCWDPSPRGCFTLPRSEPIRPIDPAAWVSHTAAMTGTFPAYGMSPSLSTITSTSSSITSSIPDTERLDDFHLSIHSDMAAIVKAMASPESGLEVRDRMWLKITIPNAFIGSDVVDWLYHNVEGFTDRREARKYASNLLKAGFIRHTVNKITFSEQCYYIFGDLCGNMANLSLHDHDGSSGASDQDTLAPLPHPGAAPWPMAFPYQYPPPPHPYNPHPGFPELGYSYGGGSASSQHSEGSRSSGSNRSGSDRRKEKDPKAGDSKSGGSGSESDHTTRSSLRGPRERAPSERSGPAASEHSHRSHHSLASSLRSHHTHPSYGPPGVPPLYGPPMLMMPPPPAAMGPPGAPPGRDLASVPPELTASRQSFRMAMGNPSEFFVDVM
# UniProt Q96GM5, whole entry: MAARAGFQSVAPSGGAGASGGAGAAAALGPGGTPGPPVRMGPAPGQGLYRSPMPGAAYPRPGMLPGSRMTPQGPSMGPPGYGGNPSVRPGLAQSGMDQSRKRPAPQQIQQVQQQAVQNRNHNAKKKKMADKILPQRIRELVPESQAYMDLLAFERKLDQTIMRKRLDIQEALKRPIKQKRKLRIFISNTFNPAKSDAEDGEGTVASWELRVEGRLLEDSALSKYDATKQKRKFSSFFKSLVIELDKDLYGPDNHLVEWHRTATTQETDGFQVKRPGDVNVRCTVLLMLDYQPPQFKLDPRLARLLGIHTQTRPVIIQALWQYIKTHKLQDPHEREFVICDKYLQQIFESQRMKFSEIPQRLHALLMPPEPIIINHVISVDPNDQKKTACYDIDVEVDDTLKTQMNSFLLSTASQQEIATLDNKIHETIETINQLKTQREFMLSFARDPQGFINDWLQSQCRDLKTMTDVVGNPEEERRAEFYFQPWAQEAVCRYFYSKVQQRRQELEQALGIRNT
# UniProt Q96Q45: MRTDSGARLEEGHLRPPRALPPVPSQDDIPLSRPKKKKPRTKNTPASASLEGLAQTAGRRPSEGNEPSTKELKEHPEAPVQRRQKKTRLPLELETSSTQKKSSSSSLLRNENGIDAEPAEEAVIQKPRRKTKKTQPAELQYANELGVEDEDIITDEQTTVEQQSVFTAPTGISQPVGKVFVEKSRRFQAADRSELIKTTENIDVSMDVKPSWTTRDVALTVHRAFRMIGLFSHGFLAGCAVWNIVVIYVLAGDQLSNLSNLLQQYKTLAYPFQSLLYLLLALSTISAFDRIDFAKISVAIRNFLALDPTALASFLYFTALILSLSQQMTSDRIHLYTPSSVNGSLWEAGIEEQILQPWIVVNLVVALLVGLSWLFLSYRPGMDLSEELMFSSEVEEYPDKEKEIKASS
# UniProt Q96CT7: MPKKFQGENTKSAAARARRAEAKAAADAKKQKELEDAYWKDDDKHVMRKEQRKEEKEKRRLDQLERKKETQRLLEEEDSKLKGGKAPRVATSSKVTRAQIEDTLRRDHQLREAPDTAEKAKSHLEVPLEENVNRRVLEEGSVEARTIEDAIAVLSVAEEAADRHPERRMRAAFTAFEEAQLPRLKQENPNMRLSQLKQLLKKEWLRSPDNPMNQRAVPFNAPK
# UniProt Q93073: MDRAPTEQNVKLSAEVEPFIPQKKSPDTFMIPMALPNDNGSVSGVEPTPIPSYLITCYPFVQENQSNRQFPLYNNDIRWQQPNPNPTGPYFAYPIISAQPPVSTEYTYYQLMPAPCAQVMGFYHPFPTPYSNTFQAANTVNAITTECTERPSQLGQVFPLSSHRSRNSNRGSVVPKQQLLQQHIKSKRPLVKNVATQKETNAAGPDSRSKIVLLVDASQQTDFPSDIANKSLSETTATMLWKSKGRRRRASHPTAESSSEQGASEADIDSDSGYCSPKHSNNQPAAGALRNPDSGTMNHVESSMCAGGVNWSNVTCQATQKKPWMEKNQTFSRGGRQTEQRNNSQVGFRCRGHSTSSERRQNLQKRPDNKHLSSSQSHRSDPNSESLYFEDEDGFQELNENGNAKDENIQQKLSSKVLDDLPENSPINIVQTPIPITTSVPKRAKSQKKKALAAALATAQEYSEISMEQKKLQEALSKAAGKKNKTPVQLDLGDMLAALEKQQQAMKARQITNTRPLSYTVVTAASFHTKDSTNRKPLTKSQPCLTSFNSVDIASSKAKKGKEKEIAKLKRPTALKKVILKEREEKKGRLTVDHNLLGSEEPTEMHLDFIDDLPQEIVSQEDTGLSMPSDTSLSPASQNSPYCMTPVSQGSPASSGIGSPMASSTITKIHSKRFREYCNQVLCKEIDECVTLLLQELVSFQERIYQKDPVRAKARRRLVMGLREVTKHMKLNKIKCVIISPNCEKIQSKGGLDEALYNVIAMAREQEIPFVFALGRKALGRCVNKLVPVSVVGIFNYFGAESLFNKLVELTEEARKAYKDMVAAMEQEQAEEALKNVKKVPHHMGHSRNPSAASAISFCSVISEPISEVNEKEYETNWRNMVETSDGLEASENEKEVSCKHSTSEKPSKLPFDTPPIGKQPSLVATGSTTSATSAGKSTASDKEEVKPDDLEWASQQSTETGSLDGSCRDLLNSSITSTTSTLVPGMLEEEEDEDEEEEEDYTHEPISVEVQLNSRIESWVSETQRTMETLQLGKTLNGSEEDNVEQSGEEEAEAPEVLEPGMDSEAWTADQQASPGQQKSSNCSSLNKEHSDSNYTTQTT
# UniProt Q96CB8, whole entry: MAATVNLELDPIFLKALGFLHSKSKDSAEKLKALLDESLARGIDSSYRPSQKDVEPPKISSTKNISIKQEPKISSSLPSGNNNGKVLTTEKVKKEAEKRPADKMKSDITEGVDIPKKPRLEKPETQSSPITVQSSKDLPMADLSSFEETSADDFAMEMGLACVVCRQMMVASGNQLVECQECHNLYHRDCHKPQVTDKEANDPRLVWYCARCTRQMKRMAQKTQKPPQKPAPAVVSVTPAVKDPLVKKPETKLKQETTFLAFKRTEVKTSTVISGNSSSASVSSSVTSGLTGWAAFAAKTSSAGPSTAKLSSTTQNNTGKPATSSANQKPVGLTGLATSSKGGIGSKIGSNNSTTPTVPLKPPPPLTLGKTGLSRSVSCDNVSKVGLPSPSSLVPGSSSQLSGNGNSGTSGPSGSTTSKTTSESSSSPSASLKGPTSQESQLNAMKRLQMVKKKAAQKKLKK
# UniProt Q96GX9: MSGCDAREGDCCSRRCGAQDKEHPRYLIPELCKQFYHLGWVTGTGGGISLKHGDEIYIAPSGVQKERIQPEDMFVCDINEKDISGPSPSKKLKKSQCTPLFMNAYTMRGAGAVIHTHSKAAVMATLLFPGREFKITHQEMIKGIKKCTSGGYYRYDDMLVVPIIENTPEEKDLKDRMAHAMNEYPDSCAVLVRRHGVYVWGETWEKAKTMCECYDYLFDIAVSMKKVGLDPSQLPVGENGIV
# UniProt Q96CP6, whole entry: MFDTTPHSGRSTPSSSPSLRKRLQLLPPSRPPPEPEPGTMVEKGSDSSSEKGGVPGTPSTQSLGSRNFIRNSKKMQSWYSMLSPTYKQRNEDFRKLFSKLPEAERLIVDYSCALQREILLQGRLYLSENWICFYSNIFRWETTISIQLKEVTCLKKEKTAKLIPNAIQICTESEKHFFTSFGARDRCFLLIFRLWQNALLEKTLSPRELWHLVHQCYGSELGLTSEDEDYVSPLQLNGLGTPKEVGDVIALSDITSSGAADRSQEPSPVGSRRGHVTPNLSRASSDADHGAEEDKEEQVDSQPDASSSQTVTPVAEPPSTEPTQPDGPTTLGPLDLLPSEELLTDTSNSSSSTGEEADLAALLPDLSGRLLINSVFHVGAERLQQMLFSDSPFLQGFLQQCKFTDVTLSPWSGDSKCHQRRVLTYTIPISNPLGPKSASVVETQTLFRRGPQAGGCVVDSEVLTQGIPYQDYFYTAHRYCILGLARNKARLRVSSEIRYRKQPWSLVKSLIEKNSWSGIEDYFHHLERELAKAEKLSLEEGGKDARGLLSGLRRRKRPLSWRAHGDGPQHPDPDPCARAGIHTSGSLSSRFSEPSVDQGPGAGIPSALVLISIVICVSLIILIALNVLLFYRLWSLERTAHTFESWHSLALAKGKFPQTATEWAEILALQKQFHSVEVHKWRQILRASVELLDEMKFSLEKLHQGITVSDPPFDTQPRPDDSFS
# UniProt Q96EW2: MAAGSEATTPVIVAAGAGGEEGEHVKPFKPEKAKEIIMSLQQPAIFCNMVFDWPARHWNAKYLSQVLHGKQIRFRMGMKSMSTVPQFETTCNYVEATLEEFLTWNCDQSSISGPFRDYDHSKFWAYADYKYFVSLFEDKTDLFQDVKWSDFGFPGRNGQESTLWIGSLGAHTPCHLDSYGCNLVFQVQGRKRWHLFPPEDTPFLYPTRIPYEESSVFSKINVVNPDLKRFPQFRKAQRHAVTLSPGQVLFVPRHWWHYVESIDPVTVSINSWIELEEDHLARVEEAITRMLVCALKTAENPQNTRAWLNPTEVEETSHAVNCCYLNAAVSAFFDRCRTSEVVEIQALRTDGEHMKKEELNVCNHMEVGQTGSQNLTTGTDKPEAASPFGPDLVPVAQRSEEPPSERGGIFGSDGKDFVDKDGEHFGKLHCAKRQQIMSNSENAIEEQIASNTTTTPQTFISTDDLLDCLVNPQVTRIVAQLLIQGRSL
# UniProt Q96EY1: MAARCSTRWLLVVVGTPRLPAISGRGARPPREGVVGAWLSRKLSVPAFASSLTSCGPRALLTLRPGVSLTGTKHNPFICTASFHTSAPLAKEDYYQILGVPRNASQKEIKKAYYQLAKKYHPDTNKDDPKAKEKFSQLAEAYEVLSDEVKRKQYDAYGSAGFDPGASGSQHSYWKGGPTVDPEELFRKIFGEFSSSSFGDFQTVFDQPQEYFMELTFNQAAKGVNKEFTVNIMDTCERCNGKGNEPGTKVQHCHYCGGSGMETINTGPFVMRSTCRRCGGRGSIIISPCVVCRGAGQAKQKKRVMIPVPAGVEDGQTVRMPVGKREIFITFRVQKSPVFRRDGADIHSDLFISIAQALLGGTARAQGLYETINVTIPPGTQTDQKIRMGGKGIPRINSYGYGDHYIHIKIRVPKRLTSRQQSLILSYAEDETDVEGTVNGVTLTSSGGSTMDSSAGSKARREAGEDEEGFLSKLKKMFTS
# UniProt Q96Q11: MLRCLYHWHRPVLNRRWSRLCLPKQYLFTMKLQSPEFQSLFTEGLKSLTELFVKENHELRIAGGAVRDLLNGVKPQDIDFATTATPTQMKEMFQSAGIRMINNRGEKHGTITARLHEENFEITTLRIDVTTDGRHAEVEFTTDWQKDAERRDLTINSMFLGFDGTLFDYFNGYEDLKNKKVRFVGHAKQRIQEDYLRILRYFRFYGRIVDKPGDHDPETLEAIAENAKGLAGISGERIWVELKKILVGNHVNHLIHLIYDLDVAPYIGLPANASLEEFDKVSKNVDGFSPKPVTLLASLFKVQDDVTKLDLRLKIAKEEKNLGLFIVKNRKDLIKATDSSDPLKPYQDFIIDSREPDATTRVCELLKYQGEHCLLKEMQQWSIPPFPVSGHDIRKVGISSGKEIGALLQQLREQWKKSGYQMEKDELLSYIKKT
# UniProt Q96EY8: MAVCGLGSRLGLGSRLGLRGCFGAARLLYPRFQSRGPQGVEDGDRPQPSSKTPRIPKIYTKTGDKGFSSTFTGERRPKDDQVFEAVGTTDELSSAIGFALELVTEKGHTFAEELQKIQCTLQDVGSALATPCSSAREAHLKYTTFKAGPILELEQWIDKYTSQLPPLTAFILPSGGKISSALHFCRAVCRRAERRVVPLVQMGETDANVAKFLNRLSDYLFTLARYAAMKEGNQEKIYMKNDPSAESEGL
# ± gives the standard deviation of the averaged measurements. This is a selection; strong and weak results do not stand in their true shares.
# Compound: Nc1ncnc2c1ncn2[C@@H]1O[C@H](COP(=O)(O)OP(=O)(O)NP(=O)(O)O)[C@@H](O)[C@H]1O [adenylyl imidodiphosphate]
# Assay: NP40-soluble protein abundance relative to vehicle (solubility fold change) (ratio); higher = more soluble protein in presence of AMP-PNP
# Details: concentration: 1mM
# In short: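 Data come from three independent experiments in which Dounce-homogenised Jurkat crude lysate was treated at eight concentrations from 0.1 to 10 mM. Treatment ran 10 min at room temperature and then 3 min at 37 °C, after which 0.8% NP40 and benzonase were added for 60 min at 4 °C before ultracentrifugation. The supernatant underwent TMT labelling and LC-MS/MS, and vsn-normalised intensities were expressed as fold change against the detergent-processed vehicle in each replicate.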
row,Target,NP40-soluble protein abundance
1,METTL2A (UniProt Q96IZ6),0.9933 ± 0.0023
2,CHCHD1 (UniProt Q96BP2),1 ± 0.028
3,UniProt Q92997 and related entries,1.03 ± 0.019
4,SNF8 (UniProt Q96H20),0.983 ± 0.05
5,SMARCD1 (UniProt Q96GM5),1.01 ± 0.085
6,UniProt Q96PE3 and related entries,0.995 ± 0.045
7,UniProt Q96B01 and related entries,1.02 ± 0.025
8,UniProt Q96Q45 and related entries,1.01 ± 0.022
9,ZFR (UniProt Q96KR1),1.05 ± 0.086
10,FAHD2A (UniProt Q96GK7),1.022 ± 0.009
11,CCDC124 (UniProt Q96CT7),1.13 ± 0.037
12,UniProt Q93073 and related entries,0.997 ± 0.026
13,UniProt Q92973 and related entries,0.979 ± 0.053
14,UniProt Q96B36 and related entries,0.992 ± 0.045
15,SLC7A6OS (UniProt Q96CW6),1.02 ± 0.033
16,UniProt Q96CB8 and related entries,1.05 ± 0.063
17,UniProt Q96GX9 and related entries,1 ± 0.034
18,TOE1 (UniProt Q96GM8),1.02 ± 0.015
19,UniProt Q96CP6 and related entries,1.02 ± 0.031
20,EAF1 (UniProt Q96JC9),1.02 ± 0.031
21,HSPBAP1 (UniProt Q96EW2),1 ± 0.03
22,DNAJA3 (UniProt Q96EY1),1.02 ± 0.039
23,UniProt Q96Q11 and related entries,1.02 ± 0.022
24,MMAB (UniProt Q96EY8),0.9943 ± 0.0099
25,UniProt Q96N16 and related entries,1.03 ± 0.027

# Two entries picked at random from those above, as already listed:
row,Target,NP40-soluble protein abundance
3,UniProt Q92997 and related entries,1.03 ± 0.019
4,SNF8 (UniProt Q96H20),0.983 ± 0.05
